How the values were obtained:
[1] = tested on: P. knowlesi A1H.1; assay: P. knowlesi A1H.1 3H-hypoxanthine incorporation growth inhibition assay; assay type: cell-based; conditions: Plasmodium knowlesi, 48 h, read-out: P. knowlesi A1H.1 IC50
[2] = tested on: free L. donovani promastigotes; assay: Resazurin reduction assay, L. donovani promastigotes; assay type: cell-based; conditions: Leishmania donovani, read-out: inhibition of free L. donovani promastigotes
[3] = tested on: human Neonatal Foreskin Fibroblast (NFF) cells; conditions: read-out: NFF IC50; previously published; ref Engel et al., 2015; cited from earlier work
[4] = tested on: Human Embryonic Kidney (HEK 293) cells; conditions: read-out: HEK 293 IC50; previously published; ref Engel et al., 2015; cited from earlier work

O=C(CCCCCCC(=O)Nc1ccccc1)NO [Vorinostat]
IC50 [1]: 370 nM
inhibition at 20 µM [2]: 20 to 35%
IC50 [3]: 5.5 µM
IC50 [4]: 5.17 µM
